The target of the data set is T1, ABI3-GST full-length (UniProt Q01593).
T1 sequence (looked up): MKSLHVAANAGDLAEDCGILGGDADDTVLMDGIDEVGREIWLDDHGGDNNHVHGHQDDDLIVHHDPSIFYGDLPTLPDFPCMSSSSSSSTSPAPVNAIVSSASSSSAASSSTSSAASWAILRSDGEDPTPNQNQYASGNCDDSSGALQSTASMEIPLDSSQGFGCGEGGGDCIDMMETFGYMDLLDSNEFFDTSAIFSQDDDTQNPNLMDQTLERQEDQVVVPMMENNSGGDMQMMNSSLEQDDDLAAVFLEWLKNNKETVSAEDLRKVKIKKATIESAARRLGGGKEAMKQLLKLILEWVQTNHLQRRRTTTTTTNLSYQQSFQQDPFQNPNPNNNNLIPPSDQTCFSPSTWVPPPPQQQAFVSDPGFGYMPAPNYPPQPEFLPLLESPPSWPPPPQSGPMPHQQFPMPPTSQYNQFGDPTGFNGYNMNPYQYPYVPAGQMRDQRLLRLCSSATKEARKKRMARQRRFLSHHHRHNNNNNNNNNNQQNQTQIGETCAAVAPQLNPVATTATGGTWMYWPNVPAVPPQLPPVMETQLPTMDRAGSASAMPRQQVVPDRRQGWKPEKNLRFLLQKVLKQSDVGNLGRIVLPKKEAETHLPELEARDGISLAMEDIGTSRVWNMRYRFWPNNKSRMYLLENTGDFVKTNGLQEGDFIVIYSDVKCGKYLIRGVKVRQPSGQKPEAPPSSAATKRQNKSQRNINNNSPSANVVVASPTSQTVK
Briefly: DPI-ELISA. The settings on record: E. coli extract, anti-GST-HRP; protein in a lysate after overexpression; residues 1-720; protein details: GST (pGEX-4T-1); label: biotin.

These results are taken from publication PMC4507774, “Arabidopsis seed-specific vacuolar aquaporins are involved in maintaining seed longevity under the control of ABSCISIC ACID INSENSITIVE 3”.

For at least one entry, the source does not settle the construct or the ends of the probe. Results from cells or extracts need not show a direct contact. At least one verdict rests on a figure or table, not on a statement of the authors. Tags and fusion partners may be left off the protein sequences shown.

Turning to “ATCTACTTGGCACACATGCATGCTTAGTCAACACA (double strand) [31RY2-bio (TIP3;1 promoter RY2)]”, the binding result is “binds”.
